Measured values as given in PubChem BioAssay AID624297 (National Center for Advancing Translational Sciences (NCATS), 2012).
The campaign covered roughly 340,000 compounds. About 6,200 (1.8%) were called active. The inconclusive results got no clear call from the source; some entries with a clear call stand among them for comparison. Calls follow the shape of the dose curve; as a rule, active = well fitted activation curve with a large enough effect; inconclusive = small, poorly fitted or top-dose-only effect; inactive = no such curve, though single readings can be large or run the other way. Where the call is inconclusive, the potency comes from a doubtful curve fit.

Assay: A quantitative high throughput screen for small molecules that induce DNA re-replication in SW480 colon adenocarcinoma cells. Also: nearly all actives have a fitted effect of over 55% in size. As to re-replication activation: % of control where 0% means no effect.
Conditions: Hoechst DNA content imaging, 48 h; re-replication activation: at 46.1 µM (top of the series) unless noted
Outline: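 SW480 cells exposed to compounds for 48 hr at 37 C, 5% CO2, then Hoechst-stained 40 min. Nuclear DNA content imaged by fluorescence scanning (405 nm excitation, 500-530 nm emission); re-replication scored as increased high-intensity nuclei.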
Potency is read from the fitted curve at half-maximal effect.

Structure (SMILES)	Potency	re-replication activation
CCCCN(C)CCCNC(=O)CN1C(=O)COc2ccc(S(=O)(=O)N3CCOCC3)cc21	inactive	–
O=C(N/N=C/c1c[nH]c2ccc(Br)cc12)c1ccccn1	inconclusive: 6.51 µM [activator, single point]	–
CCOc1cc(CNc2ncnc3nc[nH]c23)ccc1OC	inactive	–
Cc1cc(=O)oc2cc(OC(=O)C3CCN(C(=O)c4ccc(F)cc4)CC3)ccc12	inconclusive: 29.1 µM [activator, partial curve, poor fit]	–
Cc1c(C(=O)NCc2ccc(F)cc2)c(-c2ccccc2)nn1-c1ccccc1	–	inactive: -2.67% [at 9.22 µM]
CCCCNC(=O)c1cc2cc(CC)ccc2[nH]1	inactive	–
Cc1ccc(C(=O)N2c3ccccc3N(Cc3ccccc3)C(=O)C2(C)C)cc1	inconclusive: 20.6 µM [activator, single point]	–
COc1cccc(C(=O)NNC2=C(C(=O)C(F)(F)F)CCC2)c1	inconclusive: 25.9 µM [activator, single point]	–
COC(=O)[C@]1(Cc2ccccc2)N[C@H](CN(C)C(=O)Nc2ccccc2)[C@@H]2C(=O)N(Cc3ccccc3)C(=O)[C@@H]21	inconclusive: 3.66 µM [activator, single point]	–
O=C(Nc1nc2ccccc2n1CCOc1ccc(Cl)cc1)c1ccco1	inconclusive: 29.1 µM [activator, single point]	–
O=C(NCc1ccc(S(=O)(=O)Nc2ccccc2Cl)s1)c1ccccc1	inconclusive: 29.1 µM [activator, partial curve, poor fit]	–
CCCc1ccc(OCc2ccc(C(=O)N/N=C/c3cccc([N+](=O)[O-])c3)o2)c(OC)c1	inconclusive: 29.1 µM [activator, single point]	–
O=C(Nc1ccc(N2CCOCC2)c(S(=O)(=O)Nc2ccc(Cl)cc2)c1)c1cnccn1	inactive	–
CCOc1ccccc1N1CCN(CC(O)COC2CCCc3ccccc32)CC1 (configuration not stated)	inconclusive: 9.2 µM [activator, single point]	–
CCCOc1cccc(-c2cc(-c3n[nH]c(=S)n3CC)c3ccccc3n2)c1	inconclusive: 29.1 µM [activator, partial curve, poor fit]	–
O=C(Nc1nnc(-c2ccccc2Cl)o1)c1cccnc1	inconclusive: 1.64 µM [activator, partial curve, poor fit]	–
CCn1ncc(Br)c1C(=O)Nc1ccc(C(C)C)cc1	inconclusive: 23.1 µM [activator, single point]	–
CC[C@]12c3[nH]c4ccc(OC)cc4c3CCN1C(=O)C(CC(=O)NCCc1ccccn1)C[C@@H]2C(=O)N1CCN(C(=O)C2CC2)CC1 (some centres not stated)	inconclusive: 29.1 µM [activator, single point]	–
O=C(CSc1ccsc1[N+](=O)[O-])N1CCCCC1	inconclusive: 0.0052 µM [activator, full curve, poor fit]	–
O=[N+]([O-])c1ccc(C=NNc2ccc(S(=O)(=O)O)cc2)cc1	inactive	–
CCOc1ccc(S(=O)(=O)NCc2ccc3c(c2)OCO3)cc1	inconclusive: 14.6 µM [activator, partial curve, poor fit]	–

Structure (SMILES)	Potency	re-replication activation
O=S(=O)(c1cc(Cl)c(Cl)cc1Cl)N1CCN2CCCC2C1 (configuration not stated)	active: 0.366 µM	–
COc1ccccc1N(C)S(=O)(=O)c1ccc(C(=O)N2CCCc3ccccc32)cc1	inactive	–
Cc1ccc(C(c2nnnn2CC2CCCO2)N2CCN(C)CC2)cc1 (configuration not stated)	inconclusive: 0.316 µM [activator, partial curve, poor fit]	–
Cc1ccc([C@H]2C(C#N)=C(N)Oc3cc(C)oc(=O)c32)o1	inconclusive: 29.1 µM [activator, single point]	–
Cc1ccc(NC(=O)C2CCCN(S(=O)(=O)c3c(C)noc3C)C2)c(C)c1 (configuration not stated)	inconclusive: 20.6 µM [activator, partial curve, poor fit]	–
C=CC(C)(C)c1c2occc2c(O)c2ccc(=O)oc12	inconclusive: 6.51 µM [activator, single point]	–
CN(Cc1ccco1)Cc1ccc(O)c2ncccc12	inconclusive: 11.6 µM [activator, partial curve, poor fit]	–
Cc1nccc(-c2cccc(NC(=O)Nc3ccc(Cl)cc3)c2)n1	inactive	–
COc1cc(N)c(C(O)c2nccc3cc(OC)c(OC)cc23)cc1OC (configuration not stated)	inactive	–
COc1ccc(C(CNC(=O)COc2cccc(C(F)(F)F)c2)N2CCCC2)cc1 (configuration not stated)	inactive	–
CCOc1ccc(-n2nc3cc(C)c(N)cc3n2)cc1	active: 16.4 µM	–
COc1cc(/C=C/C(=O)c2ccc3c(c2)OCO3)cc(Cl)c1O	inconclusive: 18.4 µM [activator, single point]	–
O=C1CN(c2nc(-c3ccccc3)c3ccccc3n2)c2ccccc2N1	inconclusive: 17.8 µM [activator, single point]	–
CC(C)Cc1ccc(C(=O)NCc2ccc3c(c2)OCO3)o1	inconclusive: 2.91 µM [activator, single point]	–
C[C@@H]1CN([C@H](C)CO)C(=O)c2cc(NC(=O)Cc3ccccc3)ccc2O[C@H]1CN(C)Cc1ccc(Oc2ccccc2)cc1	inconclusive: 4.11 µM [activator, partial curve, poor fit]	–
COCCCN1C2=C(C(=O)CC(C)(C)C2)C(c2ccc(OC)c(OC)c2)C2=C1CC(C)(C)CC2=O	inconclusive: 11.6 µM [activator, single point]	–
Cc1onc(-c2c(F)cccc2Cl)c1C(=O)Nc1cc(S(=O)(=O)N2CCCCC2)ccc1O	inactive	–
Cc1ccc(NC(=O)CC(C)CC(=O)NCc2ccccc2)cc1Cl (configuration not stated)	inconclusive: 29.1 µM [activator, partial curve, poor fit]	–
CCOc1ccc(CCNC(=O)C2CC(=O)N(c3ccccc3OCC)C2)cc1OCC (configuration not stated)	inactive	–
CCc1ccccc1NCC(=O)Nc1ccc(Cl)c(C(F)(F)F)c1	inconclusive: 13 µM [activator, partial curve, poor fit]	–
CCN(CC)CCn1c2c(c(SCC(=O)Nc3cccc4ccccc34)nc1=O)CCC2	inactive	–
